According to patent US20200239937A1, “BIOMARKERS FOR DIAGNOSING CONDITIONS” (The Council of the Queensland Institute of Medical Research, priority 2017, published 2020):
At least one compound was matched to its structure with a doubt left.

Tested on: G9a
Experiment: G9a immunoblotting of nuclear extracts
Type: cell-based
Conditions: MCF7 and MDA231 cells; DMOG 1 mM, DFA 100 μM

SMILES: CC(=O)N(O)CCCCCNC(=O)CCC(=O)N(O)CCCCCNC(=O)CCC(=O)N(O)CCCCCN [DFA, deferoxamine]
- G9a protein levels: increase in G9a protein levels
